Results from article PMC10503807.
These are yes or no findings as the source states them, for the method shown. Binding seen in cells or lysates may run through a third protein. Some binding calls cover weakened binding; strength is not graded here.

Sequences of proteins named here, by UniProt entry; tags and fusion partners are left off. Residues count along the entry.
UniProt Q91WP6, residues 21-418: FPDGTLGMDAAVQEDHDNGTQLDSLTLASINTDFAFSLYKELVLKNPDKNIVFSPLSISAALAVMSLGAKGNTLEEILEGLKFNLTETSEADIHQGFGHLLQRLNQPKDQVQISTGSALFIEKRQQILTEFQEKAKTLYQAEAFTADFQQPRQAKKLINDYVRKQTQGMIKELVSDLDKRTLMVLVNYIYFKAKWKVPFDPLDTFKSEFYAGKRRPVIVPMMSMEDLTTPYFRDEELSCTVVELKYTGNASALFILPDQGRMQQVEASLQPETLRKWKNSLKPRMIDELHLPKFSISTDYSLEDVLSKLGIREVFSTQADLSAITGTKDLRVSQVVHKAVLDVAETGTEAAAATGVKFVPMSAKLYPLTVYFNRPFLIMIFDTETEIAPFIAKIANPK

T1: Praja1 (PJA1), mouse (mouse (endogenous in hippocampus)) (UniProt O55176)
T1 sequence: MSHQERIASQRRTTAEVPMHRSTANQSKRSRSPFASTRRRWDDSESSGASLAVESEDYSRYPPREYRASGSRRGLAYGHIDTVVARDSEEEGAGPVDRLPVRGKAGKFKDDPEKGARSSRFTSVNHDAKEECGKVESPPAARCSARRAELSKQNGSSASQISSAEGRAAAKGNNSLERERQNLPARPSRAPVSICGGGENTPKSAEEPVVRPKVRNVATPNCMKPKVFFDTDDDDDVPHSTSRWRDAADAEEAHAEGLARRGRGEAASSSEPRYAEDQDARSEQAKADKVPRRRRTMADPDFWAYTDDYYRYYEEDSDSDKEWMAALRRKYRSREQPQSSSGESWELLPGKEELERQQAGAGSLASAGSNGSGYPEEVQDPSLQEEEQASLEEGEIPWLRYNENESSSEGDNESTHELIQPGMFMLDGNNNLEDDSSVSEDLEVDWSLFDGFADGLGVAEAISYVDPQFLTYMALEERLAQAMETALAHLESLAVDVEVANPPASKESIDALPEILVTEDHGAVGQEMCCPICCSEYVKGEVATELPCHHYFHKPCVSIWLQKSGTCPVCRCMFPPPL

T2: Praja1 (PJA1), human (human (endogenous in normal human astrocytes)) (UniProt Q8NG27)
T2 sequence: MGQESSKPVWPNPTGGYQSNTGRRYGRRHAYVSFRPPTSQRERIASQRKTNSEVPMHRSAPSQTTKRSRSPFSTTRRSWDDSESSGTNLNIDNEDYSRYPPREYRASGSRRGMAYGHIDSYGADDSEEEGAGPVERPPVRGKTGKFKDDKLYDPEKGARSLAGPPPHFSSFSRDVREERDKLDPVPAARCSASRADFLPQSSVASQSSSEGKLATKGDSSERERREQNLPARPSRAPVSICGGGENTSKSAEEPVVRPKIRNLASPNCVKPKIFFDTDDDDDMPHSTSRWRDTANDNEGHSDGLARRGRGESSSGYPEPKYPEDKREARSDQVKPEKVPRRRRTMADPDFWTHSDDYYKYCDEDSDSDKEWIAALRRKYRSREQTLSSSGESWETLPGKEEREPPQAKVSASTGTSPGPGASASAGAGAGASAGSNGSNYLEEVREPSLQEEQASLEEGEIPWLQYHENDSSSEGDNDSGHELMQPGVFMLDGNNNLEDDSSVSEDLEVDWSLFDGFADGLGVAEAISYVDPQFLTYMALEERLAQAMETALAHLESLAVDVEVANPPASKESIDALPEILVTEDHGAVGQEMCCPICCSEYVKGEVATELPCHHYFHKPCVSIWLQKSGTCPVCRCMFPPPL


Legend:
[1] = target: T1, Praja1 (PJA1), mouse (mouse (endogenous in hippocampus)); assay: co-IP; mouse sample lysed in NP-40 lysis buffer, antibody or homologous IgG overnight at 4°C, protein A/G magnetic agarose beads, Western blot
[2] = target: T2, Praja1 (PJA1), human (human (endogenous in normal human astrocytes)); assay: co-IP; normal human astrocytes (NHAs) lysed in NP-40 lysis buffer, antibody or homologous IgG overnight at 4°C, protein A/G magnetic agarose beads, Western blot

Row | Molecule | binding [1] | binding [2]
1 | Serine peptidase inhibitor clade A member 3N (Serpina3n) (from UniProt Q91WP6 21-418) | binds | –
2 | α1-antichymotrypsin (AACT, the human ortholog of murine Serpina3n) (protein, UniProt P01011 24-423) HPNSPLDEENLTQENQDRGTHVDLGLASANVDFAFSLYKQLVLKAPDKNVIFSPLSISTALAFLSLGAHNTTLTEILKGLKFNLTETSEAEIHQSFQHLLRTLNQSSDELQLSMGNAMFVKEQLSLLDRFTEDAKRLYGSEAFATDFQDSAAAKKLINDYVKNGTRGKITDLIKDLDSQTMMVLVNYIFFKAKWEMPFDPQDTHQSRFYLSKKKWVMVPMMSLHHLTIPYFRDEELSCTVVELKYTGNASALFILPDQDKMEEVEAMLLPETLKRWRDSLEFREIGELYLPKFSISRDYNLNDILLQLGIEEAFTSKADLSGITGARNLAVSQVVHKAVLDVFEEGTEASAATAVKITLLSALVETRTIVRFNRPFLMIIVPTDTQNIFFMSKVTNPKQA | – | binds
